# Paper PMC4906169
# Results are given in words; binding and its absence hold for the method and conditions named. Binding seen in cells or lysates may run through a third protein. Some binding calls cover weakened binding; strength is not graded here. Where a sequence is shown, tags or fusion partners need not be part of it.
# T1: STELLO2 (STL2), BiFC fusion (Yn-STL2 / Yc-STL2) (Arabidopsis thaliana) (UniProt Q9SCN0)
# T1 sequence: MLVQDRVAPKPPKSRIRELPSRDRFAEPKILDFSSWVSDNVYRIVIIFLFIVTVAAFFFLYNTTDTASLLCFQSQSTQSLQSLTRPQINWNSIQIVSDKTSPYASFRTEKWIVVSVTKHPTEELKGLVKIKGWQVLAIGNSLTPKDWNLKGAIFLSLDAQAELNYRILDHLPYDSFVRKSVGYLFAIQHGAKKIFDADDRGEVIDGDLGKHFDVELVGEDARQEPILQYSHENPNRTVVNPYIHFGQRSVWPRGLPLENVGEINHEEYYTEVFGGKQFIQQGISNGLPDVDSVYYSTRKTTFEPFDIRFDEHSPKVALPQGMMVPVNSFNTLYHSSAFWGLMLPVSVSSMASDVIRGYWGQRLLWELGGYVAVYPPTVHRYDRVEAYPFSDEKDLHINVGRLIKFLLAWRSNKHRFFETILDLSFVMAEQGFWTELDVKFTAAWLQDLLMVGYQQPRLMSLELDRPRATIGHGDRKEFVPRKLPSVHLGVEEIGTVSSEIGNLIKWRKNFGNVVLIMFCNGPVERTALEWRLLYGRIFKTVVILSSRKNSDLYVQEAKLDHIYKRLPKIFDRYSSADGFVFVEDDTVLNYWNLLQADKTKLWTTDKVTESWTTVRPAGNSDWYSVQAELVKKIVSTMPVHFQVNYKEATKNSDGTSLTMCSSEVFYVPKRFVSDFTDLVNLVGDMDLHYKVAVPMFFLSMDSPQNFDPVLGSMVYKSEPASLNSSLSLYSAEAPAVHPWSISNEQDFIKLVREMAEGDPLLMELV
# T2: STELLO1 (STL1), BiFC fusion (Yn-STL1 / Yc-STL1) (Arabidopsis thaliana) (UniProt O22943)
# T2 sequence: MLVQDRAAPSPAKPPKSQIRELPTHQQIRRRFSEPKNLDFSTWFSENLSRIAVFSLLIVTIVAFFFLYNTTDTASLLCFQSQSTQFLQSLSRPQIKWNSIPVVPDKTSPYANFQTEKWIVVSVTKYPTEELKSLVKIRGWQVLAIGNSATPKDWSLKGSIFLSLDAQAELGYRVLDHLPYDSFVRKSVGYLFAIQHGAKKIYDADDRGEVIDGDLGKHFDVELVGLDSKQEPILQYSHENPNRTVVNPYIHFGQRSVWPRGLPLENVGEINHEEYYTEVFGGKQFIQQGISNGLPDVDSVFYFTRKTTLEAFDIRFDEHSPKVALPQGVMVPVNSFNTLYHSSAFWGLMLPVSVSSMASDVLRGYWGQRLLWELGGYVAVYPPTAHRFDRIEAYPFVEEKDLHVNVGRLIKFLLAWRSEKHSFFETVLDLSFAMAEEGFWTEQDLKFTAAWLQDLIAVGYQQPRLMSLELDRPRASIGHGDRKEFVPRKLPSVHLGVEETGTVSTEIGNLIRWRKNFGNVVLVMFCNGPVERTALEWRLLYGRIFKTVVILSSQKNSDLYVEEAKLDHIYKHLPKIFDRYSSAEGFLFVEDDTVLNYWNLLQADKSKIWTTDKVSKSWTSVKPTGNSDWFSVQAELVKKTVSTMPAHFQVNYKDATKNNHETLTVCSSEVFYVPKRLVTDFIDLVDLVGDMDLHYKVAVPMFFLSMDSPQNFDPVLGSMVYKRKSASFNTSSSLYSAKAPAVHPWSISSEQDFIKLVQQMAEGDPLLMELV
# B1: Cellulose synthase CesA6, BiFC fusion (protein, UniProt Q94JQ6 1-1084)
# chain: MNTGGRLIAGSHNRNEFVLINADENARIRSVQELSGQTCQICRDEIELTVDGEPFVACNECAFPVCRPCYEYERREGNQACPQCKTRFKRLKGSPRVEGDEEEDDIDDLDNEFEYGNNGIGFDQVSEGMSISRRNSGFPQSDLDSAPPGSQIPLLTYGDEDVEISSDRHALIVPPSLGGHGNRVHPVSLSDPTVAAHPRPMVPQKDLAVYGYGSVAWKDRMEEWKRKQNEKLQVVRHEGDPDFEDGDDADFPMMDEGRQPLSRKIPIKSSKINPYRMLIVLRLVILGLFFHYRILHPVKDAYALWLISVICEIWFAVSWVLDQFPKWYPIERETYLDRLSLRYEKEGKPSGLSPVDVFVSTVDPLKEPPLITANTVLSILAVDYPVDKVACYVSDDGAAMLTFEALSETAEFARKWVPFCKKYCIEPRAPEWYFCHKMDYLKNKVHPAFVRERRAMKRDYEEFKVKINALVATAQKVPEDGWTMQDGTPWPGNSVRDHPGMIQVFLGSDGVRDVENNELPRLVYVSREKRPGFDHHKKAGAMNSLIRVSGVLSNAPYLLNVDCDHYINNSKALREAMCFMMDPQSGKKICYVQFPQRFDGIDRHDRYSNRNVVFFDINMKGLDGLQGPIYVGTGCVFRRQALYGFDAPKKKKGPRKTCNCWPKWCLLCFGSRKNRKAKTVAADKKKKNREASKQIHALENIEEGRVTKGSNVEQSTEAMQMKLEKKFGQSPVFVASARMENGGMARNASPACLLKEAIQVISCGYEDKTEWGKEIGWIYGSVTEDILTGFKMHSHGWRSVYCTPKLAAFKGSAPINLSDRLHQVLRWALGSVEIFLSRHCPIWYGYGGGLKWLERLSYINSVVYPWTSLPLIVYCSLPAICLLTGKFIVPEISNYASILFMALFSSIAITGILEMQWGKVGIDDWWRNEQFWVIGGVSAHLFALFQGLLKVLAGVDTNFTVTSKAADDGEFSDLYLFKWTSLLIPPMTLLIINVIGVIVGVSDAISNGYDSWGPLFGRLFFALWVIIHLYPFLKGLLGKQDRMPTIIVVWSILLASILTLLWVRVNPFVAKGGPILEICGLDCL
# B2: Cellulose synthase CesA3, BiFC fusion (protein, UniProt Q941L0 1-1065)
# chain: MESEGETAGKPMKNIVPQTCQICSDNVGKTVDGDRFVACDICSFPVCRPCYEYERKDGNQSCPQCKTRYKRLKGSPAIPGDKDEDGLADEGTVEFNYPQKEKISERMLGWHLTRGKGEEMGEPQYDKEVSHNHLPRLTSRQDTSGEFSAASPERLSVSSTIAGGKRLPYSSDVNQSPNRRIVDPVGLGNVAWKERVDGWKMKQEKNTGPVSTQAASERGGVDIDASTDILADEALLNDEARQPLSRKVSIPSSRINPYRMVIMLRLVILCLFLHYRITNPVPNAFALWLVSVICEIWFALSWILDQFPKWFPVNRETYLDRLALRYDREGEPSQLAAVDIFVSTVDPLKEPPLVTANTVLSILAVDYPVDKVSCYVSDDGAAMLSFESLAETSEFARKWVPFCKKYSIEPRAPEWYFAAKIDYLKDKVQTSFVKDRRAMKREYEEFKIRINALVSKALKCPEEGWVMQDGTPWPGNNTRDHPGMIQVFLGQNGGLDAEGNELPRLVYVSREKRPGFQHHKKAGAMNALVRVSAVLTNGPFILNLDCDHYINNSKALREAMCFLMDPNLGKQVCYVQFPQRFDGIDKNDRYANRNTVFFDINLRGLDGIQGPVYVGTGCVFNRTALYGYEPPIKVKHKKPSLLSKLCGGSRKKNSKAKKESDKKKSGRHTDSTVPVFNLDDIEEGVEGAGFDDEKALLMSQMSLEKRFGQSAVFVASTLMENGGVPPSATPENLLKEAIHVISCGYEDKSDWGMEIGWIYGSVTEDILTGFKMHARGWRSIYCMPKLPAFKGSAPINLSDRLNQVLRWALGSVEILFSRHCPIWYGYNGRLKFLERFAYVNTTIYPITSIPLLMYCTLPAVCLFTNQFIIPQISNIASIWFLSLFLSIFATGILEMRWSGVGIDEWWRNEQFWVIGGVSAHLFAVFQGILKVLAGIDTNFTVTSKASDEDGDFAELYLFKWTTLLIPPTTLLIVNLVGVVAGVSYAINSGYQSWGPLFGKLFFAFWVIVHLYPFLKGLMGRQNRTPTIVVVWSVLLASIFSLLWVRIDPFTSRVTGPDILECGINC
# B3: Cellulose synthase CesA1, BiFC fusion (protein, UniProt O48946 1-1081)
# chain: MEASAGLVAGSYRRNELVRIRHESDGGTKPLKNMNGQICQICGDDVGLAETGDVFVACNECAFPVCRPCYEYERKDGTQCCPQCKTRFRRHRGSPRVEGDEDEDDVDDIENEFNYAQGANKARHQRHGEEFSSSSRHESQPIPLLTHGHTVSGEIRTPDTQSVRTTSGPLGPSDRNAISSPYIDPRQPVPVRIVDPSKDLNSYGLGNVDWKERVEGWKLKQEKNMLQMTGKYHEGKGGEIEGTGSNGEELQMADDTRLPMSRVVPIPSSRLTPYRVVIILRLIILCFFLQYRTTHPVKNAYPLWLTSVICEIWFAFSWLLDQFPKWYPINRETYLDRLAIRYDRDGEPSQLVPVDVFVSTVDPLKEPPLVTANTVLSILSVDYPVDKVACYVSDDGSAMLTFESLSETAEFAKKWVPFCKKFNIEPRAPEFYFAQKIDYLKDKIQPSFVKERRAMKREYEEFKVRINALVAKAQKIPEEGWTMQDGTPWPGNNTRDHPGMIQVFLGHSGGLDTDGNELPRLIYVSREKRPGFQHHKKAGAMNALIRVSAVLTNGAYLLNVDCDHYFNNSKAIKEAMCFMMDPAIGKKCCYVQFPQRFDGIDLHDRYANRNIVFFDINMKGLDGIQGPVYVGTGCCFNRQALYGYDPVLTEEDLEPNIIVKSCCGSRKKGKSSKKYNYEKRRGINRSDSNAPLFNMEDIDEGFEGYDDERSILMSQRSVEKRFGQSPVFIAATFMEQGGIPPTTNPATLLKEAIHVISCGYEDKTEWGKEIGWIYGSVTEDILTGFKMHARGWISIYCNPPRPAFKGSAPINLSDRLNQVLRWALGSIEILLSRHCPIWYGYHGRLRLLERIAYINTIVYPITSIPLIAYCILPAFCLITDRFIIPEISNYASIWFILLFISIAVTGILELRWSGVSIEDWWRNEQFWVIGGTSAHLFAVFQGLLKVLAGIDTNFTVTSKATDEDGDFAELYIFKWTALLIPPTTVLLVNLIGIVAGVSYAVNSGYQSWGPLFGKLFFALWVIAHLYPFLKGLLGRQNRTPTIVIVWSVLLASIFSLLWVRINPFVDANPNANNFNGKGGVF
# Molecular target: T1, STELLO2 (STL2), BiFC fusion (Yn-STL2 / Yc-STL2) (Arabidopsis thaliana)
# Assay: split reporter; BiFC with Yn/Yc halves of VENUS fused to the N-termini; transient co-expression in N. benthamiana epidermal leaf cells, imaged by confocal microscopy 62 h after infiltration
row,binding,Binder
1,binds,B1
2,binds,B2
3,binds,B3

# Molecular target: T2, STELLO1 (STL1), BiFC fusion (Yn-STL1 / Yc-STL1) (Arabidopsis thaliana)
# Assay: as above
row,binding,Binder
1,binds,B1
2,binds,B2
3,binds,B3
